Experiment [1] concerns the target GST-tagged RASSF5 RA domain (human) (UniProt Q8WWW0). Description: pull-down; systematic screen: 2 µM purified GST-tagged RBD/RA domain (or GST alone) and glutathione beads incubated 30 min with HEK 293T lysate expressing a VENUS-tagged GTPase; Bio-Spin columns on a vacuum manifold, washed three times with lysis buffer (20 mM Tris-HCl pH 7.5, 150 mM NaCl, 5 mM MgCl2, 10% glycerol, 1% Triton X-100, 1% NP-40, 1 mM DTT); Western blot; GST-alone signal subtracted; heatmap from two replicates; only the target purified.

Protein sequences, listed by entry. Tags and fused reporters are not part of them. Lines headed by an entry give the natural chain unless they say otherwise; changes in a name come on top.
UniProt Q8WWW0: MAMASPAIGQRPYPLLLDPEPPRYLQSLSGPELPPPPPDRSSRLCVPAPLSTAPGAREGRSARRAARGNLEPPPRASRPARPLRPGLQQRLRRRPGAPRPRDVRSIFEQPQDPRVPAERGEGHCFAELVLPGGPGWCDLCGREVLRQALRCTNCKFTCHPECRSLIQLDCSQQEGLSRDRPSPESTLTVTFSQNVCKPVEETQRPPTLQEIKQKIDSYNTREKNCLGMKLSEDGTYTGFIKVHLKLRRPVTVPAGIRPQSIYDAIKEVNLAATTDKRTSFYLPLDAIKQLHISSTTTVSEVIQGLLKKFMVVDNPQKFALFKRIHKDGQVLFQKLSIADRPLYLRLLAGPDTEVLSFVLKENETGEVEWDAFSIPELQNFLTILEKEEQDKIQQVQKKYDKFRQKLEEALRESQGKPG
UniProt Q9H2L5: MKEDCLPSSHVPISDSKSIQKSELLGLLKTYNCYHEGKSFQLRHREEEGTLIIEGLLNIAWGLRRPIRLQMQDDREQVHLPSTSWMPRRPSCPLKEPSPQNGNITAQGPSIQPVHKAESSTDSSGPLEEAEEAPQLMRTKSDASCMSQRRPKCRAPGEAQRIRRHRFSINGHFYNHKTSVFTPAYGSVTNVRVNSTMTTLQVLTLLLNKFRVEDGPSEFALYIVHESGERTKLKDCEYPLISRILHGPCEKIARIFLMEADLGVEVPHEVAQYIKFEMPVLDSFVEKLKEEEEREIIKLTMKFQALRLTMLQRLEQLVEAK
UniProt Q86WH2: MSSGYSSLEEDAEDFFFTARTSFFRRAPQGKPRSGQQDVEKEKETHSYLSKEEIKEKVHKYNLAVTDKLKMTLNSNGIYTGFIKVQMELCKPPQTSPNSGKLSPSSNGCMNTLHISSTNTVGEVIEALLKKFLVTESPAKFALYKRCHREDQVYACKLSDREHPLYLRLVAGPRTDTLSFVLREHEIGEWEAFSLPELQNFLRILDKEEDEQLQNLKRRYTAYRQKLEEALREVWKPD
UniProt Q8NHQ8: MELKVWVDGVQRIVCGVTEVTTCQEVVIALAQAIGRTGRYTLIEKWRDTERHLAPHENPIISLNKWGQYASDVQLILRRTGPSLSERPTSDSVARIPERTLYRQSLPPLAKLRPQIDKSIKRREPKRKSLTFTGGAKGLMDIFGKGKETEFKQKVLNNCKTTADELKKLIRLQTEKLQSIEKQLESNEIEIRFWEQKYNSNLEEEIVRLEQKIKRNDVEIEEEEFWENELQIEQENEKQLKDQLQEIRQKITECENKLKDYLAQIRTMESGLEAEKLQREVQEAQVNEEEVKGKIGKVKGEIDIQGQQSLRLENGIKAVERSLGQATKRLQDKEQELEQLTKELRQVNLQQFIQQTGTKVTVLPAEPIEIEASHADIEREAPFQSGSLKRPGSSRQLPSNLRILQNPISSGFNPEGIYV

The target is the same in experiment [2]. The experiment in a line: pull-down; validation pull-downs (Fig. EV1C, Fig. 2A): recombinant purified GST-RASSF5 RA or GST alone with HEK 293T lysates expressing VENUS-tagged GTPases (activated, wild-type or dominant-negative variants); Western blot; only the target purified.
Experiment [3] concerns the target GST-tagged RASSF4 RA domain (human) (UniProt Q9H2L5). Description: pull-down; systematic screen: 2 µM purified GST-tagged RBD/RA domain (or GST alone) and glutathione beads incubated 30 min with HEK 293T lysate expressing a VENUS-tagged GTPase; Bio-Spin columns on a vacuum manifold, washed three times with lysis buffer (20 mM Tris-HCl pH 7.5, 150 mM NaCl, 5 mM MgCl2, 10% glycerol, 1% Triton X-100, 1% NP-40, 1 mM DTT); Western blot; GST-alone signal subtracted; heatmap from two replicates; only the target purified.

Experiment [4] deals with GST-tagged RASSF3 RA domain (human) (UniProt Q86WH2). The description is as above.
The target in experiment [5] is GST-tagged RASSF8 RA domain (human) (UniProt Q8NHQ8). Described as above.

The results in this text go back to PMC11316025.

Positions count from the first letter of the chain named. Numbers in names are those of the source. No constants are given. Whether binding was seen depends on the method and setting. In cells and extracts the contact can be indirect. A result given as binding can be weak or reduced; the word gives no strength. For part of these data: Tags and fused reporters may be left off the sequences shown.

B1: VENUS-RAP2C-G12V (protein, UniProt Q9Y3L5 1-183)
chain: MREYKVVVLGSVGVGKSALTVQFVTGTFIEKYDPTIEDFYRKEIEVDSSPSVLEILDTAGTEQFASMRDLYIKNGQGFILVYSLVNQQSFQDIKPMRDQIVRVKRYEKVPLILVGNKVDLEPEREVMSSEGRALAQEWGCPFMETSAKSKSMVDELFAEIVRQMNYSSLPEKQDQCCTTCVVQ
Turning to B1, the binding entry in experiment [1] and in experiment [2] was “binds” each time.

B2: VENUS-tagged RHOBTB1 (wild-type) (protein, UniProt O94844 1-696)
chain: MDADMDYERPNVETIKCVVVGDNAVGKTRLICARACNTTLTQYQLLATHVPTVWAIDQYRVCQEVLERSRDVVDEVSVSLRLWDTFGDHHKDRRFAYGRSDVVVLCFSIANPNSLNHVKSMWYPEIKHFCPRTPVILVGCQLDLRYADLEAVNRARRPLARPIKRGDILPPEKGREVAKELGLPYYETSVFDQFGIKDVFDNAIRAALISRRHLQFWKSHLKKVQKPLLQAPFLPPKAPPPVIKIPECPSMGTNEAACLLDNPLCADVLFILQDQEHIFAHRIYLATSSSKFYDLFLMECEESPNGSEGACEKEKQSRDFQGRILSVDPEEEREEGPPRIPQADQWKSSNKSLVEALGLEAEGAVPETQTLTGWSKGFIGMHREMQVNPISKRMGPMTVVRMDASVQPGPFRTLLQFLYTGQLDEKEKDLVGLAQIAEVLEMFDLRMMVENIMNKEAFMNQEITKAFHVRKANRIKECLSKGTFSDVTFKLDDGAISAHKPLLICSCEWMAAMFGGSFVESANSEVYLPNINKISMQAVLDYLYTKQLSPNLDLDPLELIALANRFCLPHLVALAEQHAVQELTKAATSGVGIDGEVLSYLELAQFHNAHQLAAWCLHHICTNYNSVCSKFRKEIKSKSADNQEYFERHRWPPVWYLKEEDHYQRVKREREKEDIALNKHRSRRKWCFWNSSPAVA
On to B2, for which the binding result in experiment [3], in experiment [4] and in experiment [5] was “binds” each time.

B3: VENUS-tagged, mutationally activated RASL11B (protein, UniProt Q9BPW5 1-248)
chain: MRLIQNMCTIAEYPAPGNAAASDCCVGAAGRRLVKIAVVGAVGVGKTALVVRFLTKRFIGDYERNAGNLYTRQVQIEGETLALQVQDTPGIQVHENSLSCSEQLNRCIRWADAVVIVFSITDYKSYELISQLHQHVQQLHLGTRLPVVVVANKADLLHIKQVDPQLGLQLASMLGCSFYEVSVSENYNDVYSAFHVLCKEVSHKQQPSSTPEKRRTSLIPRPKSPNMQDLKRRFKQALSAKVRTVTSV
As to B3, the binding result in experiment [5] is on record as “binds”.

B4: VENUS-tagged RHOBTB2 (wild-type) (protein, UniProt Q9BYZ6 1-727)
chain: MDSDMDYERPNVETIKCVVVGDNAVGKTRLICARACNATLTQYQLLATHVPTVWAIDQYRVCQEVLERSRDVVDDVSVSLRLWDTFGDHHKDRRFAYGRSDVVVLCFSIANPNSLHHVKTMWYPEIKHFCPRAPVILVGCQLDLRYADLEAVNRARRPLARPIKPNEILPPEKGREVAKELGIPYYETSVVAQFGIKDVFDNAIRAALISRRHLQFWKSHLRNVQRPLLQAPFLPPKPPPPIIVVPDPPSSSEECPAHLLEDPLCADVILVLQERVRIFAHKIYLSTSSSKFYDLFLMDLSEGELGGPSEPGGTHPEDHQGHSDQHHHHHHHHHGRDFLLRAASFDVCESVDEAGGSGPAGLRASTSDGILRGNGTGYLPGRGRVLSSWSRAFVSIQEEMAEDPLTYKSRLMVVVKMDSSIQPGPFRAVLKYLYTGELDENERDLMHIAHIAELLEVFDLRMMVANILNNEAFMNQEITKAFHVRRTNRVKECLAKGTFSDVTFILDDGTISAHKPLLISSCDWMAAMFGGPFVESSTREVVFPYTSKSCMRAVLEYLYTGMFTSSPDLDDMKLIILANRLCLPHLVALTEQYTVTGLMEATQMMVDIDGDVLVFLELAQFHCAYQLADWCLHHICTNYNNVCRKFPRDMKAMSPENQEYFEKHRWPPVWYLKEEDHYQRARKEREKEDYLHLKRQPKRRWLFWNSPSSPSSSAASSSSPSSSSAVV
As to B4, the binding entry in experiment [3], in experiment [4] and in experiment [5] was “binds” throughout.

B5: VENUS-tagged RHOH (wild-type) (protein, UniProt Q15669 1-191)
chain: MLSSIKCVLVGDSAVGKTSLLVRFTSETFPEAYKPTVYENTGVDVFMDGIQISLGLWDTAGNDAFRSIRPLSYQQADVVLMCYSVANHNSFLNLKNKWIGEIRSNLPCTPVLVVATQTDQREMGPHRASCVNAMEGKKLAQDVRAKGYLECSALSNRGVQQVFECAVRTAVNQARRRNRRRLFSINECKIF
B5: the binding result in experiment [3], in experiment [4] and in experiment [5] was “binds” throughout.

B6: VENUS-tagged RASD1-A178V (protein, UniProt Q9Y272 1-281)
chain: MKLAAMIKKMCPSDSELSIPAKNCYRMVILGSSKVGKTAIVSRFLTGRFEDAYTPTIEDFHRKFYSIRGEVYQLDILDTSGNHPFPAMRRLSILTGDVFILVFSLDNRDSFEEVQRLRQQILDTKSCLKNKTKENVDVPLVICGNKGDRDFYREVDQREIEQLVGDDPQRCAYFEISVKKNSSLDQMFRALFAMAKLPSEMSPDLHRKVSVQYCDVLHKKALRNKKLLRAGSGGGGGDPGDAFGIVAPFARRPSVHSDLMYIREKASAGSQAKDKERCVIS
With B6, the binding result in experiment [5] was “binds”.

B7: VENUS-RIT2-G29V (protein, UniProt Q99578 1-217)
chain: MEVENEASCSPGSASGGSREYKVVMLGAVGVGKSAMTMQFISHQFPDYHDPTIEDAYKTQVRIDNEPAYLDILDTAGQAEFTAMREQYMRGGEGFIICYSVTDRQSFQEAAKFKELIFQVRHTYEIPLVLVGNKIDLEQFRQVSTEEGLSLAQEYNCGFFETSAALRFCIDDAFHGLVREIRKKESMPSLMEKKLKRKDSLWKKLKGSLKKKRENMT
B7: the binding result in experiment [1] and in experiment [2] was “binds” throughout.

B8: VENUS-tagged RRAS Q87L (protein, UniProt P10301 1-218)
chain: MSSGAASGTGRGRPRGGGPGPGDPPPSETHKLVVVGGGGVGKSALTIQFIQSYFVSDYDPTIEDSYTKICSVDGIPARLDILDTAGLEEFGAMREQYMRAGHGFLLVFAINDRQSFNEVGKLFTQILRVKDRDDFPVVLVGNKADLESQRQVPRSEASAFGASHHVAYFEASAKLRLNVDEAFEQLVRAVRKYQEQELPPSPPSAPRKKGGGCPCVLL
On to B8, for which, in experiment [2], the binding entry is given as “binds”.

B9: VENUS-tagged RRAS wild-type (protein, UniProt P10301 1-218)
chain: B8 chain with L87Q
In the case of B9, in experiment [2], the binding result is listed as “binds”.

B10: VENUS-RRAS2-G23V (protein, UniProt P62070 1-204)
chain: MAAAGWRDGSGQEKYRLVVVGGVGVGKSALTIQFIQSYFVTDYDPTIEDSYTKQCVIDDRAARLDILDTAGQEEFGAMREQYMRTGEGFLLVFSVTDRGSFEEIYKFQRQILRVKDRDEFPMILIGNKADLDHQRQVTQEEGQQLARQLKVTYMEASAKIRMNVDQAFHELVRVIRKFQEQECPPSPEPTRKEKDKKGCHCVIF
As for B10, the binding result in experiment [1] and in experiment [2] was “binds” in each case.

B11: VENUS-RAP2B-G12V (protein, UniProt P61225 1-183)
chain: MREYKVVVLGSVGVGKSALTVQFVTGSFIEKYDPTIEDFYRKEIEVDSSPSVLEILDTAGTEQFASMRDLYIKNGQGFILVYSLVNQQSFQDIKPMRDQIIRVKRYERVPMILVGNKVDLEGEREVSYGEGKALAEEWSCPFMETSAKNKASVDELFAEIVRQMNYAAQPNGDEGCCSACVIL
For the molecule B11, the binding result in experiment [1] and in experiment [2] was “binds” throughout.
